Measured values: patent US20250123269A1 (priority 2023, published 2025)
At least one compound was matched to its structure with a doubt left.

Tested on: WT SARS-COV-2 (USA-WA1/2020)
Format: cell-based

CCC(CC)COC(=O)[C@H](C)N[P@](=O)(OC[C@H]1O[C@@](C#N)(c2ccc3c(N)ncnn23)[C@H](O)[C@@H]1O)Oc1ccccc1 [remdesivir]
dose-dependent inhibition of infection: dose-dependent inhibition of infection
inhibition of SARS-COV-2 infection (dose-response curve): strong inhibition efficacy
inhibition of virus: inhibited
